Experimental data taken from article doi:10.1101/2024.06.29.601312.
Results are given in words; binding and its absence hold for the method and conditions named. Binding seen in cells or lysates may run through a third protein. Some results given as binding are weak or reduced against the parent protein; the word gives no strength.

Sequences of proteins named here, by UniProt entry; tags and fusion partners are left off.
UniProt Q01147: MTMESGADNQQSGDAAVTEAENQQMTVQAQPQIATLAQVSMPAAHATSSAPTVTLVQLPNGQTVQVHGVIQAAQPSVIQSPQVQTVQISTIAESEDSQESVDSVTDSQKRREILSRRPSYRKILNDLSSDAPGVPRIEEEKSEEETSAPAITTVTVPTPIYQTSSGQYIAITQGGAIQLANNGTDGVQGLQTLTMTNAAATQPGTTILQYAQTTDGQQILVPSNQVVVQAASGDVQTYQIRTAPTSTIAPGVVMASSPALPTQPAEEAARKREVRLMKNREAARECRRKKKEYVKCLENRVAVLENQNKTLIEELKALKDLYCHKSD

Biological target: T1, Foxp3 (mouse (endogenous in T cells of WT mice)) (UniProt Q99JB6)
T1 sequence: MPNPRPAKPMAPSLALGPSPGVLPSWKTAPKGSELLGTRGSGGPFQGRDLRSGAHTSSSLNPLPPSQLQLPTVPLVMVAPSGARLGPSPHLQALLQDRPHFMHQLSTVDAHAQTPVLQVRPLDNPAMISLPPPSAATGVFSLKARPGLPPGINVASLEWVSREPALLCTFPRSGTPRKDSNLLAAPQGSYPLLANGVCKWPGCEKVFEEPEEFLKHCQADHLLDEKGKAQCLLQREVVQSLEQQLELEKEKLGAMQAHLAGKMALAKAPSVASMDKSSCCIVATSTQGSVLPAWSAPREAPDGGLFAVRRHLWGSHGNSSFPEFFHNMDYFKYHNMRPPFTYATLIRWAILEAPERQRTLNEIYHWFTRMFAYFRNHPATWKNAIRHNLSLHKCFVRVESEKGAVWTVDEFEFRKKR
Assay: co-IP

cAMP response element binding protein CREB (from UniProt Q01147 1-327)
binding: binds

B1: CREM (protein, UniProt P27699 1-357)
chain: MSKCGRKKYMRTNVRQMTMETVESQQDRSVTRSVAEHSSAHMQTGQISVPTLAQVSVAGSGTGRGSPAVTLVQLPSGQTVQVQGVIQTPHPSVIQSPQIQTVQVATIAETDDSADSEVIDSHKRREILSRRPSYRKILNELSSDVPGIPKIEEEKSEEEGTPPNIATMAVPTSIYQTSTGQYIAIAQGGTIQISNPGSDGVQGLQALTMTNSGAPPPGATIVQYAAQSADGTQQFFVPGSQVVVQDEETDLAPSHMAAATGDMPTYQIRAPTTALPQGVVMAASPGSLHSPQQLAEEATRKRELRLMKNREAAKECRRRKKEYVKCLESRVAVLEVQNKKLIEELETLKDICSPKTD
binding: binds
